# Record: PubChem BioAssay AID1508597 (Cure First, 2020)
# Purpose: 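Genes whose silencing sensitises or protects ovarian cancer cells against rucaparib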 (primary screen)
# System: human ovarian carcinoma lines grown from tumours: OCI-P5x (papillary serous) and OCI-C5x (clear cell)
# Knock-down reagent: siRNA pool against human genes, 1.25 pmol siRNA per well
# Duration: 72 h or 96 h, depending on the cell culture
# Treatment: rucaparib 20 µM (about IC30) or vehicle, present until read-out
# Rucaparib or vehicle: Rucaparib
# Cell line: OCI-C5x (clear cell)
# Read-out: 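Luminescent ATP-based viability assay read 72 or 96 h after transfection, depending on culture, given as normalised percent viability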
# Scale: viability, normalised: higher = more viable cells remaining
# Rule for the call: 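Active when normalised viability falls below 80 percent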
# Calls: active = viability under 80%; inactive = viability 80% or more
# This is an unselected part of the about 2,100 reagents, under one of the conditions tested. 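Calls flag viability under 80% in either arm, not effects specific to rucaparib; the reference for percent is not stated.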 A number with no mark means an inactive call. A reagent listed more than once was tested more than once; the source does not tell the runs apart. No sequences are given here. Not stated in the record: the 100% reference.
Target gene,technical replicate,"viability, normalised (%)"
PRMT5,1,47.4 (active)
PRMT5,2,44.6 (active)
PRMT5,3,28.6 (active)
KDM6A,1,55.6 (active)
KDM6A,2,38.9 (active)
KDM6A,3,55.1 (active)
APPL2,1,87.1
APPL2,2,63.5 (active)
APPL2,3,63.5 (active)
TAF5,1,59.1 (active)
TAF5,2,62.7 (active)
TAF5,3,52.2 (active)
SIRT3,1,47.4 (active)
SIRT3,2,29.5 (active)
SIRT3,3,33.2 (active)
BMPR1B,1,47.1 (active)
BMPR1B,2,39.8 (active)
BMPR1B,3,48.5 (active)
UCK2,1,55.4 (active)
UCK2,2,45.7 (active)
UCK2,3,39.3 (active)
CDK11A,1,52.1 (active)
CDK11A,1,77.7 (active)
CDK11A,2,59.6 (active)
CDK11A,2,51.1 (active)
CDK11A,3,82.1
CDK11A,3,55.8 (active)
RLF,1,43.1 (active)
RLF,2,52 (active)
RLF,3,43.4 (active)
EPC1,1,60.6 (active)
EPC1,2,55.9 (active)
EPC1,3,51.5 (active)
TNKS,1,70.6 (active)
TNKS,2,72.5 (active)
TNKS,3,89.3
GCK,1,47.1 (active)
GCK,2,56.4 (active)
GCK,3,45.6 (active)
CKMT2,1,63.8 (active)
CKMT2,2,55.3 (active)
CKMT2,3,49.2 (active)
PHIP,1,50.4 (active)
PHIP,2,46.6 (active)
PHIP,3,41.6 (active)
ERCC6L,1,55.8 (active)
ERCC6L,2,47.6 (active)
ERCC6L,3,53.5 (active)
PDIK1L,1,56.8 (active)
PDIK1L,2,61.5 (active)
PDIK1L,3,57 (active)
CASP3,1,61.5 (active)
CASP3,2,46 (active)
CASP3,3,30.8 (active)
WRNIP1,1,42 (active)
WRNIP1,2,55.9 (active)
WRNIP1,3,42.8 (active)

4 entries already listed, sorted by “viability, normalised (%)”, highest first:
Target gene,technical replicate,"viability, normalised (%)"
ERCC6L,1,55.8 (active)
PHIP,1,50.4 (active)
PHIP,2,46.6 (active)
PHIP,3,41.6 (active)
